{"sequences": {"note": "The chains behind the UniProt entries cited, without tags or fusion partners.", "UniProt Q0JBA9, entry or part of it": "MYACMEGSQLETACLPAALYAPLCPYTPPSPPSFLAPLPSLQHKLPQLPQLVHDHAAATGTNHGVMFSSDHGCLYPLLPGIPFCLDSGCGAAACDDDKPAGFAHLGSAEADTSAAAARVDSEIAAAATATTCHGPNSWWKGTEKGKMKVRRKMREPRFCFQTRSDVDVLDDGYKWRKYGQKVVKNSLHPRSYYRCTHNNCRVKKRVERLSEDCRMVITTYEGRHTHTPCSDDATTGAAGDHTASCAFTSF"}, "source": "paper PMC7819943", "about": "“Rice protein-binding microarrays: a tool to detect cis-acting elements near promoter regions in rice”", "note": "Some of the results follow."}
{"molecular_target": "OsWRKY34 (Oryza sativa, UniProt Q0JBA9 1-250)", "assay": "protein-binding microarray (RPBM); PBS, 2% BSA, 51.3 ng/ul salmon testes DNA, 50 uM zinc acetate, 200 nM TF, 25 C, 1 h; high values mean tight binding", "conditions": "protein: recombinant; tags: N-terminal polyhistidine and DsRed monomer fusion (pET32a); label: CyDye5-dUTP incorporated in the synthesized complementary strand; 3' TTTTT single-stranded linker to array surface; dsDNA, one strand shown", "procedure,_shortened": "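For the binding signal, per-feature fluorescence intensity was read in arbitrary units on an Axon 4000B scanner. Before scanning, a 2% BSA-blocked custom Agilent array made double-stranded with Cy5-dUTP was washed after 1 h at 25 °C with 200 nM protein and 50 µM zinc acetate. The proteins were Ni–NTA-purified transcription factors with N-terminal polyhistidine and DsRed fusions, expressed in E. coli BL21-CodonPlus.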"}
{"sequence": "TATTCCTCGCTTAAATTGTGGGGTGGTATTATTATCCTTACGGAGTCACCTAGTGCAG", "binding signal": "12600 fluorescence intensity (a.u.)"}
{"sequence": "TTCTCTTCCTCGTTTTTGTTCAGGGTCATCACTTGCTGTCCGGAGTCACCTAGTGCAG", "binding signal": "9040 fluorescence intensity (a.u.)"}
{"sequence": "GGAGCTCATCACTGGCCAGCTGCCGCCGCCGCCGCCACCACGGAGTCACCTAGTGCAG", "binding signal": "8240 fluorescence intensity (a.u.)"}
{"sequence": "TGGACATATCCCATCCATGCATGACCGTGAACCAAACACACGGAGTCACCTAGTGCAG", "binding signal": "8100 fluorescence intensity (a.u.)"}
{"sequence": "GTCCACAACTATACAACCCACAAGCGTGGCGCTGCGCCACCGGAGTCACCTAGTGCAG", "binding signal": "8360 fluorescence intensity (a.u.)"}
{"sequence": "AACTGAAACTCTGAACTTGACATCCATATGCGACTAATTCCGGAGTCACCTAGTGCAG", "binding signal": "8520 fluorescence intensity (a.u.)"}
{"sequence": "GAGGACGCTTCGATCGACTCATCATCGTATTCTTGTAGTACGGAGTCACCTAGTGCAG", "binding signal": "8040 fluorescence intensity (a.u.)"}
{"sequence": "TTCTTTTGCCGTGCTCCCAGATTCTCCGGTCGCCACGACTCGGAGTCACCTAGTGCAG", "binding signal": "8590 fluorescence intensity (a.u.)"}
{"sequence": "TTACTACTTCACCGTCTCTTTTTCTTCCTCAGCGCACAAACGGAGTCACCTAGTGCAG", "binding signal": "9610 fluorescence intensity (a.u.)"}
{"sequence": "CATATTCCTTAGCTATGGGTCTGACACCTGTTCATTCTTCCGGAGTCACCTAGTGCAG", "binding signal": "13700 fluorescence intensity (a.u.)"}
{"sequence": "GTCGTTCGCTCTTTTATCCTTTTCGGACAATTTCACTTTCCGGAGTCACCTAGTGCAG", "binding signal": "19200 fluorescence intensity (a.u.)"}
{"sequence": "AGTTTGTCATGGATCCATCATCCATCGATTTGTTTTCTCTCGGAGTCACCTAGTGCAG", "binding signal": "12600 fluorescence intensity (a.u.)"}
{"sequence": "CATATTATAAATCATTTGACTTTTTTCATATTCAAAATTTCGGAGTCACCTAGTGCAG", "binding signal": "9090 fluorescence intensity (a.u.)"}
{"sequence": "ACATATTCCCTGCACCCTGCTAGCTACCTTGAGTTGCAATCGGAGTCACCTAGTGCAG", "binding signal": "9180 fluorescence intensity (a.u.)"}
{"sequence": "CGCGTCCATCGGATTGATCGATCGGTTGTTGCTGGCCATGCGGAGTCACCTAGTGCAG", "binding signal": "8170 fluorescence intensity (a.u.)"}
{"sequence": "CCGTGCTCGCCGCCGTCAACTTGGGCTACTTCCTTTTGTGCGGAGTCACCTAGTGCAG", "binding signal": "9650 fluorescence intensity (a.u.)"}
{"sequence": "AAGCCCAGTTCCGGTTTTGACACTATCAAATTTGAGAATTCGGAGTCACCTAGTGCAG", "binding signal": "8740 fluorescence intensity (a.u.)"}
{"sequence": "TGACCACCATTGCTGCTTCTGCTTCTTCTTGTATGTATACCGGAGTCACCTAGTGCAG", "binding signal": "17200 fluorescence intensity (a.u.)"}
{"sequence": "AAAACTTTAATTTTGTTGCTTCCTTTATTGGCTACTCCTACGGAGTCACCTAGTGCAG", "binding signal": "8460 fluorescence intensity (a.u.)"}
{"sequence": "GTCTGTCATCCCTGTCTGAATTTGGGGAAGCTGGATTCAACGGAGTCACCTAGTGCAG", "binding signal": "8350 fluorescence intensity (a.u.)"}
{"sequence": "GGTAGTCGGCGGAGGTGGCGAGGTCGAGGGAGGGGAAGATCGGAGTCACCTAGTGCAG", "binding signal": "8450 fluorescence intensity (a.u.)"}
{"sequence": "ATTTGTGTTGTTGTGACTTGTTTTGTGGTATTTTAAACATCGGAGTCACCTAGTGCAG", "binding signal": "12400 fluorescence intensity (a.u.)"}
{"sequence": "GACCTTTGAGCTGTACTCTTTTCTTTGTCATGGTTTTCTCCGGAGTCACCTAGTGCAG", "binding signal": "8480 fluorescence intensity (a.u.)"}
